Results on 15 sequences are retold here after patent US6140490.

Chains of the proteins cited; added tags and fusions are not shown. Chains listed by the source or under a name are the forms on record and can include a tag or linker.
Complement C3 (Homo sapiens), one chain, as listed by the source, chain 2 of 2: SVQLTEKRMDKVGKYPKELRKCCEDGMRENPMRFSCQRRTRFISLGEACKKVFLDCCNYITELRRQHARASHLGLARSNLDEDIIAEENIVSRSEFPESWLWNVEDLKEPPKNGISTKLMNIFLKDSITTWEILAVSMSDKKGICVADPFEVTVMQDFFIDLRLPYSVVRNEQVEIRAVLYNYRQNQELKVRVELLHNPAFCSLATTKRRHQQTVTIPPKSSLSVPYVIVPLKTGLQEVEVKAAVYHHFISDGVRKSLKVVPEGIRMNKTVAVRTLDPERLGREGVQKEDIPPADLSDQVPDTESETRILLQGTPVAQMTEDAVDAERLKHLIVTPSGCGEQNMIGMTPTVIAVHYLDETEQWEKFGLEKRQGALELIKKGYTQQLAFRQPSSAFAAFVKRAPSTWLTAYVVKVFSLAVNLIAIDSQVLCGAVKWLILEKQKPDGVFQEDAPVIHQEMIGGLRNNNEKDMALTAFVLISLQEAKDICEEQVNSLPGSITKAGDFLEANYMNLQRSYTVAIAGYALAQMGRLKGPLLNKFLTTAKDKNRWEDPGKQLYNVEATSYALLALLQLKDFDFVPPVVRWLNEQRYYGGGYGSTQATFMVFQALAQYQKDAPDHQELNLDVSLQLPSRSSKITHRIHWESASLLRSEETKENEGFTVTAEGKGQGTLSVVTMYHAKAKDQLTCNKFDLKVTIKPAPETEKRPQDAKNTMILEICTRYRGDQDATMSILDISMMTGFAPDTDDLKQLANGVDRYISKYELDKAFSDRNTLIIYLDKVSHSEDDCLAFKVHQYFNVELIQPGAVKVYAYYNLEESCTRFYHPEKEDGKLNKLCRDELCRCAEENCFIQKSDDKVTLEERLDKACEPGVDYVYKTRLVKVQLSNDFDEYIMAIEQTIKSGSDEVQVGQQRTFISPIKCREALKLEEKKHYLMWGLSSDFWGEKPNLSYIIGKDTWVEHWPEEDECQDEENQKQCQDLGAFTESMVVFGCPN
Complement C5 (Homo sapiens), one chain, as listed by the source, chain 2 of 2: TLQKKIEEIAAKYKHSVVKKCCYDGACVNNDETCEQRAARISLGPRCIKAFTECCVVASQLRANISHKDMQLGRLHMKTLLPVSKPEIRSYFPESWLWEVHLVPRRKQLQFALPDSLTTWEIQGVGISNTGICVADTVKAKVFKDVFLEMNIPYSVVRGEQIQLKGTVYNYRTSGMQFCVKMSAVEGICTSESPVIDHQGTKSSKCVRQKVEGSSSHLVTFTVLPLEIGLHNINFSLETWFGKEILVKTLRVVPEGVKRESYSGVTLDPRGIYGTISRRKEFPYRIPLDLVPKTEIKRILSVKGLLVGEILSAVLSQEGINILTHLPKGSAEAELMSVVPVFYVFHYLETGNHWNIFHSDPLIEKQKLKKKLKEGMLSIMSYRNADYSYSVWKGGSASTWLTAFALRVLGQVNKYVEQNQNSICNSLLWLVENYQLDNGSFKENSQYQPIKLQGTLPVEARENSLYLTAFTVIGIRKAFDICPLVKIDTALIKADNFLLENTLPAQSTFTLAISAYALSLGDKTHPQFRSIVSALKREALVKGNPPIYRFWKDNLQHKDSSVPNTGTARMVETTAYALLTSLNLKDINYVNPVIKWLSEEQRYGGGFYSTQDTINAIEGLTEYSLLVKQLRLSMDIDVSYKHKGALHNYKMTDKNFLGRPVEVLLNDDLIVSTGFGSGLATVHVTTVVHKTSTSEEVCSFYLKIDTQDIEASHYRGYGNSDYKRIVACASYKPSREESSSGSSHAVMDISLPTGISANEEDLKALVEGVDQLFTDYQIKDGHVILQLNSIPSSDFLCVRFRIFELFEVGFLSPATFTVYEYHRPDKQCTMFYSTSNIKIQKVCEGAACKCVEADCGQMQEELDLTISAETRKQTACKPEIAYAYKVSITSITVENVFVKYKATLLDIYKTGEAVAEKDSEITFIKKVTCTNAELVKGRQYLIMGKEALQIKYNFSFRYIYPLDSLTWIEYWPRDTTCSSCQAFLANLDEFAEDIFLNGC
Complement C5 (Rattus norvegicus), one chain, as listed by the source, chain 2 of 2: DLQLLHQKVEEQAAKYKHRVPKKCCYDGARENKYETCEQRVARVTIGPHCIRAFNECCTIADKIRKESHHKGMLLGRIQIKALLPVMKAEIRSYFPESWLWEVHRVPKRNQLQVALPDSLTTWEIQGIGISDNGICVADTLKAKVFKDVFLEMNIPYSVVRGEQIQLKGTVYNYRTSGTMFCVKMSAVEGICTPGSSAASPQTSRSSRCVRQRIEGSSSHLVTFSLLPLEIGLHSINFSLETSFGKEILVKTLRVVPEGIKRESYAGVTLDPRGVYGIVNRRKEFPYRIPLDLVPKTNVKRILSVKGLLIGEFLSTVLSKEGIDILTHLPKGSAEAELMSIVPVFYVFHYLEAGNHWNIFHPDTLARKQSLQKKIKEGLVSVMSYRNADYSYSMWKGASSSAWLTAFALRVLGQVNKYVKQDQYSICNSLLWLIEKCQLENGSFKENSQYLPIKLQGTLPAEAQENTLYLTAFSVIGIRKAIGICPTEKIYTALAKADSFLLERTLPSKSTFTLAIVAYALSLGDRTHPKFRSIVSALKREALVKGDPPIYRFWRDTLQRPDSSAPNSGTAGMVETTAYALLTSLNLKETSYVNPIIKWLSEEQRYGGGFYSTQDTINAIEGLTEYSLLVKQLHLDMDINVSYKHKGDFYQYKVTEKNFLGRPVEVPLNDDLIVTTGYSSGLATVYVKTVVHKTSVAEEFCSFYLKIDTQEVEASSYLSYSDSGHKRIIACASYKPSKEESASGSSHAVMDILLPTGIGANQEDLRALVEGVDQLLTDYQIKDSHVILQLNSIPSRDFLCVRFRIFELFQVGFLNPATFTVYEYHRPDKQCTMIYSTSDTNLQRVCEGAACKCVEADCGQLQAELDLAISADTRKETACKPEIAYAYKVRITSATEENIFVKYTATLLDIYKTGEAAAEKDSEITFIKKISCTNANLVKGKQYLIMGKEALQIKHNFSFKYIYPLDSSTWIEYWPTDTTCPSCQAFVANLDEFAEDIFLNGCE
Complement C3 (Homo sapiens), one chain, as listed by the source, chain 1 of 2: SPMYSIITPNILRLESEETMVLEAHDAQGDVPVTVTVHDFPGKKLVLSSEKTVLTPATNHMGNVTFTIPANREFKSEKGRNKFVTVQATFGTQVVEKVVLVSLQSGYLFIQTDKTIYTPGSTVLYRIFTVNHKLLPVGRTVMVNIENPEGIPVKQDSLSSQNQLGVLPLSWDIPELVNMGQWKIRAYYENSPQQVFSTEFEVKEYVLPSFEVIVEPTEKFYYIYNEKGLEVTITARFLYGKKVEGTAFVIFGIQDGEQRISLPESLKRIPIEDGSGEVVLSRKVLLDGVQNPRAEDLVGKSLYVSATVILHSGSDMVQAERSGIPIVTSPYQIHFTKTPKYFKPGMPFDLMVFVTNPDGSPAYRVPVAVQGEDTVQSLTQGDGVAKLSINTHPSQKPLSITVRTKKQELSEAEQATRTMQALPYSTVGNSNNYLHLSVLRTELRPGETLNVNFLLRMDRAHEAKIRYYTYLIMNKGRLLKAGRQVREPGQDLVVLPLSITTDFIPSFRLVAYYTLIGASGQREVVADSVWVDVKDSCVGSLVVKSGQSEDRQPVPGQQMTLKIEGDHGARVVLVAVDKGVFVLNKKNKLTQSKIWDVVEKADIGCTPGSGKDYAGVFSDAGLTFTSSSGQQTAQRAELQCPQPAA
Complement C5 (Homo sapiens), one chain, as listed by the source, chain 1 of 2: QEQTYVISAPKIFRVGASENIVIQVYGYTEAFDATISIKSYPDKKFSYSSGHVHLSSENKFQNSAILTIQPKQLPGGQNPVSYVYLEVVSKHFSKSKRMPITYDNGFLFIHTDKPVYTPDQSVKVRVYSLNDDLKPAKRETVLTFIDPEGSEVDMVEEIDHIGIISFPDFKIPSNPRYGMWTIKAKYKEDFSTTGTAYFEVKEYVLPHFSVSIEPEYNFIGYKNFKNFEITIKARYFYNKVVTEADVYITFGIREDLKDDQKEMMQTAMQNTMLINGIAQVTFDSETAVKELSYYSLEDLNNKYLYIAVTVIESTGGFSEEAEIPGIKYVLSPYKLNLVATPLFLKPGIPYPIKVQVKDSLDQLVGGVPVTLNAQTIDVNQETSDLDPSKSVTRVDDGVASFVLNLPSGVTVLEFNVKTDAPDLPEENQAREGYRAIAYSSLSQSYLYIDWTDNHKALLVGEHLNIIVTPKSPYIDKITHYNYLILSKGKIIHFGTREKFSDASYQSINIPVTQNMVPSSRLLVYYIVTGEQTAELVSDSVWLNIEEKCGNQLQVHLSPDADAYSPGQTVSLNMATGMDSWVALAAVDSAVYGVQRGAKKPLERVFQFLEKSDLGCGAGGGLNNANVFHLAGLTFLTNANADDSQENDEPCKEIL
Complement C5 (Rattus norvegicus), one chain, as listed by the source, chain 1 of 2: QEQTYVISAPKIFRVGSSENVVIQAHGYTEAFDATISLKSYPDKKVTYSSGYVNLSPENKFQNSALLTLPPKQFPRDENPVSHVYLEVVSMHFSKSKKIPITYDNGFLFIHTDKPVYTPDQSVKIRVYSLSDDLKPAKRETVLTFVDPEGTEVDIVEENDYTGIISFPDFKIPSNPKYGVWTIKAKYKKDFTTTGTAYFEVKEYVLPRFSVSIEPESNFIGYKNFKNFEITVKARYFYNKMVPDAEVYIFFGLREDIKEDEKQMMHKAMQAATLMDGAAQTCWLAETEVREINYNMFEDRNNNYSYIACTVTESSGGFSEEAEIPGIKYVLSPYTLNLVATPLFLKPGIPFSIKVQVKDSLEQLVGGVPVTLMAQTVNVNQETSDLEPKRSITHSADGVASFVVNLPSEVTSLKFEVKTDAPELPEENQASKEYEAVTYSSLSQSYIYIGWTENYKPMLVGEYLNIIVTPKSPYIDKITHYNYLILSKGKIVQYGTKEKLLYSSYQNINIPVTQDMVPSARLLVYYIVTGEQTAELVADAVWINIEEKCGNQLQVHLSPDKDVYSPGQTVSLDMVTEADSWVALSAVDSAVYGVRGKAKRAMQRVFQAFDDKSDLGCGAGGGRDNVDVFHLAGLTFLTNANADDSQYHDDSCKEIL

For some of these results: Construct, isoform or probe ends are uncertain for at least one entry.

Data set [1] deals with Complement C1q (in serum). As to the kind of experiment: activity assay. As to conditions: PS; complement activation ELISA; C4d printed as -7.1; C1q dependence only suggested; protein in an extract; single-stranded DNA.
Data set [2] relates to Complement C3 (Homo sapiens). As to the kind of experiment: SELEX. As to conditions: 2'-F C and U [2'-F at all C and U]; selected sequence, no individual value; purified native protein; protein details: Quidel; letters built from the parent sequence and the stated change.
The subject of data set [3] is Complement C5 (Homo sapiens). As to the kind of experiment: SELEX. As to conditions: 2'-F C and U; Group I; purified native protein; protein details: Quidel.
In data set [4] the test system is Complement C5 (Homo sapiens). Kind of data set: inhibition of the protein. As to conditions: 2'-F C and U, purified native protein, protein details: Quidel, dose not given here.
For data set [5], the system named is Complement C5 (Homo sapiens). Kind of data set: filter binding. As to conditions: 2'-F C and U; MgPBS, 37 C; range for the ligands; purified native protein; protein details: Quidel; label: 32P.
Data set [6] has as its system Complement C5 (Rattus norvegicus). As to the kind of experiment: SELEX. The following applies: 2'-F C and U; purified native protein.
Where [7] appears, read: Group I totally inhibits hemolysis, 1:40 human serum, 37 C, label: 32P.

Turning to “GGCGGGGCTACGTACCGGGGCTTTGTAAAACCCCGCC [phosphorothioate oligonucleotide SEQ ID NO:156]”, in data set [1], the functional effect came to 32.4 µg Bb.
Consider “GGGAGGACGAUGCGGGUGACUCGAUAUCUUCCAAUCUGUACAUGGUCAGACGACUCGCCCGA [C3c 36]”, for which, in data set [2], the selection result is reported as “selected”.
Same read-out and setting: then “GGAGGACGAUGCGGGGCCUAAAGUCAAGUGAUCAUCCCCUGCGUCAGACGACUCGCCCGA [c3-8c]”, with “selected”.
With “GGGAGGACGAUGCGGUCUCAUGCGUCGAGUGUGAGUUUAACUGCGUCAGACGACUCGCCCGA [K7]”, the selection result in data set [3] is recorded as “selected”. Moreover, the “functional effect of the aptamer” value in data set [4] (Group I totally inhibits hemolysis, 1:40 human serum, 37 C) was “active”.
Turning to “GGGAGGAGGAUCGGUGUUCAGCAUUCAGAUCUUCAGACGACUCGCCCGA [E4]”, the binding result in data set [5] is recorded as “binds”.
Regarding “GGGAGGACGAUGCGGUCCGGCGCGCUGAGUGCCGGUUUAUCCUCGUCAGACGACUCGCCCGA [A6]”, the “functional effect of the aptamer” value in data set [4] (setting [7]) is listed as “active”. In addition, in data set [5], the binding result is reported as “binds”.
In the case of “GGGAGGACGAUGCGGUGAGCGUGUAAAACGGUUUCGAUAGAGCCUCAGACGACUCGCCCGA [C9]”, the binding result in data set [5] is given as “binds”.
As for “GGGAGGACGAUGCGGCUUCUGAAGAUUAUUUCGCGAUGUGAACUUCAGACCCCUCAGACGACUCGCCCGA [RtC5-74]”, the selection result in data set [6] is “selected”.
With “GGGAGGACGAUGCGGUCUCAUGCGCCGAGUGUGAGUUUACCUUCGUCAGACGACUCGCCCGA [F8]”, in data set [4] (setting [7]), the “functional effect of the aptamer” value was “active”. In addition, in data set [5], the binding result is “binds”.
As to “GACGAUGCGGUCUCAUGCGUCGAGUGUGAGUUUACCUUCGUC [truncated C5 ligand (FIG. 3)]”, the “functional effect of the aptamer” value in data set [4] (inhibits total hemolytic complement activity) is listed as “active”.
As for “GGGAGGACGAUGCGGCUUCUGAAGAUUAUUUCGCGAUGUGAACUCCAGACCCCUCAGACGACUCGCCCGA [RtC5-100]”, the selection result in data set [6] is “selected”.
For the sequence “GGGAGGACGAUGCGGUCUCAUGCGUCGAGUGUGAGUUUACCUUCGUCAGACGACUCGCCCGA [C6]”, the binding result in data set [5] is “binds”.
In the case of “GGGAGGACGAUGCGGGUCCUCGGGGAAAAUUUCGCGACGUGAACCUCAGACGACUCGCCCGA [RtC5-168]”, the selection result in data set [6] was “selected”.
As for “GGGAGGACGAUGCGGUCCGGCGCGCUGAGUGCCGGUUAUCCUCGUCAGACGACUCGCCCGA [E5c/E11]”, the “functional effect of the aptamer” value in data set [4] (setting [7]) is listed as “active”. In data set [5], the binding result was “binds”.
Turning to “GGGAGGACGAUGCGGCGAUUACUGGGACAGACUCGCGAUGUGAGCUCAGACGACUCGCCCGA [RtC5-95]”, the selection result in data set [6] is recorded as “selected”.
